Some entries share one result that the patent states for a list of compounds.
Test system: YB5 and HCT116
Test: Soft agar colony formation assay
Format: cell-based, human
Conditions: single dose pre-exposure for four days

In the case of `Nc1nc(N[C@H]2CC3CCC2C3)sc1C(=O)c1ccccc1[N+](=O)[O-]` (stereo partly shown) [MC180295], the “reduction of colony formation” value is reported as 30-80%.
